Experimental data reported in patent EP0371732A1, “Dopamine-beta-hydroxylase inhibitors” (SMITHKLINE BEECHAM CORPORATION, priority 1988, dated 1990).
At least one structure is not confirmed: it was looked up by name or label, or the drawing left a doubt.

Target: dopamine-β-hydroxylase (DBH)
Assay: in vitro DBH inhibition: conversion of tyramine to octopamine in the presence of DBH, spectrophotometric absorbence at 330 nm
Assay type: biochemical
Conditions: reference compound in the same test

With CCCCc1ccc(C(=O)O)nc1 [Fusaric acid] the IC₅₀ was 8 x 10⁻⁷ M.
